# Source: PubChem BioAssay AID504465 (National Center for Advancing Translational Sciences (NCATS), 2011)
# Screen size: about 2,100 compounds; about 210 (10%) were called active. The inconclusive results got no clear call from the source; some entries with a clear call stand among them for comparison. The call rests on the fitted dose curve; in most records, active means well fitted inhibition curve with a large enough effect; inconclusive means small, poorly fitted or top-dose-only effect, or effect the other way; inactive means no such curve, though single readings can be large or run the other way. Potencies of inconclusive entries are doubtful fits and often do not repeat.
# Test: IN Cell qHTS Assay for Inhibitors of the mTORC1 Signaling Pathway in MEF (Tsc2-/-, p53-/-) Cells: Sytravon; further: nearly all actives have a fitted effect of over 60% in size
# Settings: phospho-rpS6 immunofluorescence, 24 h; series mostly up to 38.3 µM
# Excerpt: NIH Molecular Libraries Probe Production Centers Network [MLPCN] NIH Chemical Genomics Center [NCGC] MLPCN Grant: NS059428-01 Assay Submitter (PI): Blenis, John; Hoffman, Greg; Harvard University NCGC Assay Overview: Thee mammalian target of rapamycin (mTOR) is an intracellular serine/threonine kinase Aberrant regulation of mTOR signaling plays a causative role in a number of human diseases, including cancer, benign tumors such as lymphangioleiomyomatosis (LAM) and Tuberous Sclerosis Complex (TSC), and metabolic diseases such as diabetes and obesity. This project aims to identify inhibitors of ribosomal protein S6 (rpS6) phosphorylation. The phosphorylation of rpS6 is a key event downstream of mTOR activation. The assay uses a phospho-specific antibody of phospho-rpS6 to detect inhibitors of mTOR activation. Mutations in the Tsc1 and Tsc2 genes are the underlying genetic lesions responsible for TSC, causing constitutive activation of the mTORC1 pathway and leading to profound effects on cell metabolism. Aberrant metabolism in cancer has recently received significant attention as a target to develop therapeutic agents in the treatment of cancer1. As Tsc2-/- cells have lost the ability to respond to energy and growth factor deprivation, these cells are unable to properly down regulate cellular biosynthetic processes in response to metabolic stress, and are thus extremely sensitive to glucose deprivation-induced death.2 A central goal of this project is to explore the unique cell survival and metabolic properties of cells with Tsc1 or Tsc2 by screening for compounds that selectively target the Tsc2-/- MEFs by screening both Tsc2-/- and WT MEF cell lines. We hope to better understand these aspects of TSC physiology in order to exploit them for therapeutic benefit.
# NCGC IN Cell Assay Protocol: For quantitative high throughput analysis of mTORC1 signaling, we developed a cell-based assay for immuno-fluorescence based detection of rpS6 phosphorylation on the Acumen Explorer that will be used a platform for the primary small molecule screen. Mouse embryonic fibroblasts (MEFs) are cultured in 1536-well plates using DMEM + 10% FBS. Twenty-four hrs after plating, test compounds (solubilized in DMSO) are delivered and incubated with the cells for 24 hrs at 37 degree Celsius. Following the incubation, media with compound is aspirated and the cells are fixed in 4% paraformaldehyde (PFA) containing PBS + 0.2% TX-100. Next, PFA is aspirated, cells are washed two times with PBS plus 0.2% TX-100 and the cells are blocked for 1 hr at room temperature (blocking buffer: LiCOR Blocking Buffer plus 0.2% TX-100). This is followed by aspiration and staining with Alexa-488 conjugated-phospho-rpS6 Ser235/236 antibody for 2 hours at room temperature (Cell Signaling Technology # 4803, 1:50 dilution in blocking buffer). Cells are washed two times with PBS plus 0.2% TX-100, and stained with 10 uM propidium iodide (PI) for 20-25 minutes for cell number measurement (1:500 dilution of Hoescht staining is also added for IN Cell imaging). Active wells which are selected (based on Acumen results) are imaged on the IN Cell 1000 (GE Healthcare) using the D360/40X and HQ480/40X excitation filters for the Hoechst and Alexa-488 cytoplasmic stains, respectively. The fluorescence emission filters used were HQ460/40M and HQ535/50M for the Hoechst and Alexa-488 cytoplasmic stains, respectively. The normalized phospho-S6 staining is calculated as the ratio of […] for the single concentration rapamycin control (7.5 nM) and DMSO columns. […] Inhibition of the pathway is defined based on the normalized phospho-S6 intensity in rapamycin treated cells. Each treatment is reported as the % positive cells in the well, where thresholds are defined by selecting wells with the highest and lowest signal and differentiating between the % non-active and % active populations. […]
# Potency means the concentration at half of the fitted maximal effect.
row,SMILES,Potency
1,Cc1ccc(-n2ncc(C(=O)NCc3cccs3)c2C2CCN(C(=O)OC(C)(C)C)CC2)cc1C,inactive
2,CCOC(=O)C1CCN(C(=O)CSc2c3c(nc4ccc(Cl)cc24)CCCC3)CC1,inactive
3,Cc1cc(C)c(NC(=O)Cn2c(=O)n(CCC(=O)NCc3ccc4c(c3)OCO4)c(=O)c3ccccc32)c(C)c1,inactive
4,CCCCNc1oc(-c2ccc(COc3ccccc3C)o2)nc1C#N,"inconclusive: 1.65 µM [falling, partial curve, poor fit]"
5,Brc1ccc(Nc2c3c(nc4nncn24)CCC3)cc1,active: 10.4 µM
6,Cc1ccc(S(=O)(=O)c2nc(-c3cccs3)oc2SCC(=O)Nc2cc(C)cc(C)c2)cc1,active: 16.5 µM
7,Cc1cccc(Cn2c(=O)n(CCCC(=O)NCc3ccccc3Cl)c(=O)c3ccccc32)c1,inactive
8,CCCCN(C)CCNC(=O)C1CCN(c2nc3ccc(CC)cc3s2)CC1,"inconclusive: 0.464 µM [falling, full curve, poor fit]"
9,CCOCCCNC(=O)C1CCN(c2nc3ccc(Cl)cc3[nH]2)CC1,inactive
10,Cc1cc(N2CCN(C)CC2)nc2ccc(NC(=O)c3ccccc3F)cc12,"inconclusive: 9.27 µM [falling, partial curve, poor fit]"
11,COCCCNC(=O)c1ccc(-n2c(-c3ccccc3)cc3c2CCCCC3)cc1,"inconclusive: 23.3 µM [falling, single point]"
12,Cc1ccccc1Nc1c(-c2c[nH]c3ccccc23)nc2cccc(C)n12,inactive
13,CN(C)c1ccc(NC(=O)Cn2cc(S(=O)(=O)Cc3ccccc3Cl)c3ccccc32)cc1,active: 10.4 µM
14,CCCCn1c2ccc(F)cc2c2nnc(SCCN(CC)CC)nc21,"inconclusive: 2.93 µM [falling, partial curve, poor fit]"
15,Cc1ccccc1NC(=O)c1sc2nc3c(cc2c1N)CCCC3,"inconclusive: 5.85 µM [falling, partial curve, poor fit]"
16,Cc1ccc(C(=O)Nc2c(C(=O)NCc3ccc(Cl)cc3)sc3nc(C)cc(C)c23)cc1,active: 11.7 µM
17,CCc1ccc(-n2nc(C)c3c(C(=O)Nc4cc(OC)cc(OC)c4)cc(C)nc32)cc1,inactive
18,CCN(CC)CCCNC(=O)c1ccc(-c2nc(CN3CCc4ccccc43)c(C)o2)cc1,active: 13.1 µM
19,NC(=O)c1ccccc1NC(=O)c1ccc(-c2ccc(Br)cc2)o1,"inconclusive: 14.7 µM [falling, single point]"
20,Cc1ccc(C)c(N2CCN(C(=O)C3CCN(c4nc5ccc(C)cc5[nH]4)CC3)CC2)c1,inactive
21,CCOC(=O)c1ccc(NC(=O)CC2C(=O)OCCN2CC)cc1 (stereo unspecified),"inconclusive: 0.117 µM [falling, full curve, poor fit]"
22,CCN(C(=O)C1CCCN(S(=O)(=O)c2c(C)noc2/C=C/N(C)C)C1)c1cccc(C)c1 (stereo unspecified),"inconclusive: 3.69 µM [falling, single point]"

row,SMILES,Potency
1,Cc1ccc2nc(N3CCC(C(=O)N4CCN(c5cccc(Cl)c5)CC4)CC3)[nH]c2c1,inactive
2,COc1ccc(-c2noc(CC(=O)Nc3ccc(F)cc3F)n2)cc1,"inconclusive: 14.7 µM [falling, single point]"
3,COC(=O)c1sccc1S(=O)(=O)N(CC(=O)Nc1ccc(C)cc1)c1ccccc1,inactive
4,Cc1ccc2c(CNCc3cccs3)c(C(=O)O)n(Cc3ccc(F)cc3)c2c1,"inconclusive: 13.1 µM [falling, single point]"
5,Cn1ncc2c(NCc3cccc(Cl)c3)ncnc21,inactive
6,CCN1CCOC(=O)C1CC(=O)Nc1ccccc1C(F)(F)F (stereo unspecified),"inconclusive: 23.3 µM [falling, single point]"
7,Cc1ccc(-c2nc3ncccc3o2)cc1NC(=O)COc1ccc(C(C)C)cc1,inactive
8,COc1ccc(N2CCN(S(=O)(=O)c3c(C)nc4scc(C)n4c3=O)CC2)cc1,"inconclusive: 23.3 µM [activator, single point]"
9,COc1ccccc1Nc1cc(C(=O)NCCCN(C)C2CCCCC2)c2ccccc2n1,active: 1.65 µM
10,CCN1CCN(C(=O)Cn2ncc3c4ccccc4n(Cc4c(C)cc(C)cc4C)c3c2=O)CC1,"inconclusive: 23.3 µM [falling, single point]"
11,Cc1ccc(-n2ncc(C(=O)NCCN3CCC(Cc4ccccc4)CC3)c2C2CCN(C(=O)OC(C)(C)C)CC2)cc1,"inconclusive: 23.3 µM [falling, single point]"
12,CCCCOc1cccc(C2c3c(-c4cc(C)ccc4O)n[nH]c3C(=O)N2CCOC)c1 (stereo unspecified),inactive
13,COc1ccccc1NC(=O)c1cc2c(-c3ccccc3)nn(-c3ccccc3)c2s1,"inconclusive: 14.7 µM [falling, single point]"
14,Cc1ccc(C)c(N2CCN(CCCNC(=O)c3cnn(-c4cccc(Cl)c4)c3C3CCN(C(=O)OC(C)(C)C)CC3)CC2)c1,"inconclusive: 18.5 µM [falling, single point]"
15,COc1ccccc1Nc1nn2c(=O)c3ccc(C(=O)NCCc4ccccc4)cc3nc2s1,inactive
16,CCN1CCN(CCCNC(=O)Cn2nc(C)n3c(cc4c(OC)cccc43)c2=O)CC1,"inconclusive: 2.93 µM [falling, partial curve, poor fit]"
17,CC(=O)Nc1cccc(-c2nnc(SCC(=O)c3cc([N+](=O)[O-])ccc3Cl)o2)c1,"inconclusive: 26.1 µM [falling, single point]"
18,COc1ccc(C2C(C(=O)Nc3ccccc3)=C(C)Nc3nc(-c4ccc(Cl)cc4)nn32)cc1 (stereo unspecified),active: 13.1 µM
19,CC(Nc1oc(-c2ccc(COc3ccccc3)o2)nc1C#N)c1ccccc1 (stereo unspecified),"inconclusive: 29.3 µM [falling, partial curve, poor fit]"
20,CCOC(=O)c1ccc(N2C(=O)c3n[nH]c(-c4ccco4)c3C2c2ccccc2OC)cc1 (stereo unspecified),"inconclusive: 18.5 µM [falling, single point]"
21,COC(=O)c1c(C)oc2ccc(N(C(=O)c3ccncc3)S(=O)(=O)c3ccc(Br)cc3)cc12,"inconclusive: 0.369 µM [falling, full curve, poor fit]"
22,CCNc1nc2c(c(=O)n(C)c(=O)n2C)n1Cc1ccc(F)cc1,"inconclusive: 16.5 µM [falling, partial curve, poor fit]"

row,SMILES,Potency
1,CC(C)c1ccc(NC(=O)Cn2nnc(C(=O)NCc3ccc4c(c3)OCO4)c2N)cc1,"inconclusive: 26.1 µM [falling, single point]"
2,Cc1c(C(=O)OC2CCC(C)CC2)[nH]c2c1C(=O)CC(c1ccc(F)cc1)C2 (stereo unspecified),inactive
3,CCCCN1C(=O)c2[nH]nc(-c3ccccc3O)c2C1c1ccc(OCc2ccccc2)c(OC)c1 (stereo unspecified),"inconclusive: 14.7 µM [falling, single point]"
4,Cc1ccc(NC(=O)c2c(C)oc3ccc(O)c(CN4CCN(Cc5ccccc5)CC4)c23)cc1,"inconclusive: 8.26 µM [falling, partial curve, poor fit]"
5,CCC1CN(C(=O)NCc2ccc(F)cc2)c2cc(C)ccc2O1 (stereo unspecified),"inconclusive: 4.14 µM [falling, partial curve]"
6,CSc1ccc(C2c3c(-c4ccccc4O)n[nH]c3C(=O)N2Cc2ccncc2)cc1 (stereo unspecified),"inconclusive: 20.7 µM [falling, single point]"
7,Cc1cccc(C(=O)NCCc2nc3ccccc3n2CCC(C)C)c1,"inconclusive: 26.1 µM [falling, single point]"
8,O=C(c1ccc(CS(=O)c2ccccc2Cl)o1)N1CCN(c2cccc(Cl)c2)CC1 (stereo unspecified),"inconclusive: 5.85 µM [falling, partial curve, poor fit]"
9,O=c1c(=O)n(Cc2c(F)cccc2Cl)ccn1Cc1ccccc1,"inconclusive: 26.1 µM [falling, single point]"
10,COc1cccc(NC(=O)Cn2c(=O)n(CC(=O)NCCc3ccccc3)c(=O)c3sccc32)c1,"inconclusive: 0.0261 µM [activator, full curve, poor fit]"
11,Cc1ccc(C)c(N2CCN(CCCNC(=O)c3nnc(Cc4ccc(F)cc4Cl)o3)CC2)c1,"inconclusive: 23.3 µM [falling, single point]"
12,COc1ccc(CCNC(=O)CCn2c(=O)c3ccccc3n(Cc3ccccc3C)c2=O)cc1OC,inactive
13,O=C(NCCCc1nc2ccccc2n1Cc1ccccc1F)c1ccco1,inactive
14,COc1ccccc1N1CCN(C(=O)c2ccc3c(c2)CCN3S(=O)(=O)c2ccccc2)CC1,inactive
15,Cc1oc2ccc(O)c(CN3CCCC(C)C3)c2c1C(=O)Nc1ccccc1 (stereo unspecified),"inconclusive: 13.1 µM [falling, single point]"
16,CCOc1cc(C2C(C(=O)OC)=C(C)NC3=C2C(=O)c2ccccc23)cc(Br)c1OCC (stereo unspecified),inactive
17,O=C(NCC1CCN(Cc2ccc(F)cc2)CC1)c1cc2ccc3cccnc3c2[nH]1,"inconclusive: 16.5 µM [falling, single point]"
18,CCOc1ccc(NC(=O)Cn2c(=O)oc3cc(S(=O)(=O)N4CCC(C)CC4)ccc32)cc1,"inconclusive: 23.3 µM [falling, single point]"
19,Cc1ccc(NC(=O)c2nc(-c3ccncc3)no2)c(Cl)c1,"inconclusive: 0.104 µM [falling, full curve, poor fit]"
20,Cc1cc(=O)n2nc(N3CCC(C(=O)NCc4ccc(Cl)cc4)CC3)sc2n1,inactive
21,CCOC(=O)c1[nH]c2ccccc2c1NC(=O)c1cc(OCC)c(OCC)c(OCC)c1,"inconclusive: 16.5 µM [falling, single point]"
22,CCc1nn(CC(=O)NCc2ccccc2Cl)c(=O)c2cccn12,active: 3.29 µM

# Single entries from the list.
# Cc1cccc(C(=O)NCCc2nc3ccccc3n2CCC(C)C)c1 | Potency: inconclusive: 26.1 µM [falling, single point]
# COc1ccc(CCNC(=O)CCn2c(=O)c3ccccc3n(Cc3ccccc3C)c2=O)cc1OC | Potency: inactive
# Cc1ccc(NC(=O)c2nc(-c3ccncc3)no2)c(Cl)c1 | Potency: inconclusive: 0.104 µM [falling, full curve, poor fit]

# Among those listed so far, these have a cyano group:
row,SMILES,Potency
4,CCCCNc1oc(-c2ccc(COc3ccccc3C)o2)nc1C#N,"inconclusive: 1.65 µM [falling, partial curve, poor fit]"
19,CC(Nc1oc(-c2ccc(COc3ccccc3)o2)nc1C#N)c1ccccc1 (stereo unspecified),"inconclusive: 29.3 µM [falling, partial curve, poor fit]"
